Assay results from paper PMC4384122.

Sequences of proteins named here, by UniProt entry; tags and fusion partners are left off. A change or cut given only in a name is not applied to a line headed by its entry.
UniProt P23258: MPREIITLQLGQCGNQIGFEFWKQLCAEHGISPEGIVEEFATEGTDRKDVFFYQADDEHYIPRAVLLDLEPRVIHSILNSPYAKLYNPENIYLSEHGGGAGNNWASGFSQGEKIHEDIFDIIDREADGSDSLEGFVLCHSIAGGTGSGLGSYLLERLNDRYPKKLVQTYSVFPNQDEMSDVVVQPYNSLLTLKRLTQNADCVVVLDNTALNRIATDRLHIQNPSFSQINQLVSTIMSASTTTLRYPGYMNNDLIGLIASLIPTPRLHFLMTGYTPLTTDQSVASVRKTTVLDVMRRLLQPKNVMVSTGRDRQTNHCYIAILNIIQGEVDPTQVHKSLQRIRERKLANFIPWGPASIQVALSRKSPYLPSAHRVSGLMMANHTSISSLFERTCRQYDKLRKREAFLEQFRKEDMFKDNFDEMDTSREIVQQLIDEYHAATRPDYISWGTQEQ
UniProt P00519: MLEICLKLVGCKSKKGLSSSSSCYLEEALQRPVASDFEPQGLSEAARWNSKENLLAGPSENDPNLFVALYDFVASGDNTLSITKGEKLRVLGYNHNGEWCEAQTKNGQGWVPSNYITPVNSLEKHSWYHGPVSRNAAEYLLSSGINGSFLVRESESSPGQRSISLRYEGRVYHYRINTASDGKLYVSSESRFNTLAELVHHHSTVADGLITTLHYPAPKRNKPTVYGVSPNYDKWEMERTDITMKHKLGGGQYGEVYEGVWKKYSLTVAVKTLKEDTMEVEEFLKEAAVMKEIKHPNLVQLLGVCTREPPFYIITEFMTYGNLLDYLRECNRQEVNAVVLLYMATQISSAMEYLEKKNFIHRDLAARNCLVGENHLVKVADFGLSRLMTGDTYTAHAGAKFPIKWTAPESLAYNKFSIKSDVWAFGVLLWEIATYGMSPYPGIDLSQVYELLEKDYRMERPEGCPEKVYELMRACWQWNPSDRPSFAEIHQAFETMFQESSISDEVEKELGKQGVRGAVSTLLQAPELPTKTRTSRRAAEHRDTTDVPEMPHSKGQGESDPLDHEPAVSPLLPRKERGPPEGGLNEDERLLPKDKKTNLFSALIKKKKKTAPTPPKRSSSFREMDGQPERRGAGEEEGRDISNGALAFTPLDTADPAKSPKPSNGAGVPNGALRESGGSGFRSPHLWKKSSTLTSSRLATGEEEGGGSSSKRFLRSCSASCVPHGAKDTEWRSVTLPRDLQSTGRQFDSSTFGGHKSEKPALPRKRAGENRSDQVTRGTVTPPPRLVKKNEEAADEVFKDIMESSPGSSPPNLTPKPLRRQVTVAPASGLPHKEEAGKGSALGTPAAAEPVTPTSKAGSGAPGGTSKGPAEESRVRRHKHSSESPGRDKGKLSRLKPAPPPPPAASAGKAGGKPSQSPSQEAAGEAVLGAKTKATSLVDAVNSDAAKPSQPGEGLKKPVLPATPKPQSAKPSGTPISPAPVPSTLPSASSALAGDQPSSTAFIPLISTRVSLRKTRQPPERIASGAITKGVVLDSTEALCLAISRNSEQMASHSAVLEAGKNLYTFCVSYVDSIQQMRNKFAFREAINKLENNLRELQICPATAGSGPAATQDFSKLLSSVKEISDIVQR
UniProt Q15717: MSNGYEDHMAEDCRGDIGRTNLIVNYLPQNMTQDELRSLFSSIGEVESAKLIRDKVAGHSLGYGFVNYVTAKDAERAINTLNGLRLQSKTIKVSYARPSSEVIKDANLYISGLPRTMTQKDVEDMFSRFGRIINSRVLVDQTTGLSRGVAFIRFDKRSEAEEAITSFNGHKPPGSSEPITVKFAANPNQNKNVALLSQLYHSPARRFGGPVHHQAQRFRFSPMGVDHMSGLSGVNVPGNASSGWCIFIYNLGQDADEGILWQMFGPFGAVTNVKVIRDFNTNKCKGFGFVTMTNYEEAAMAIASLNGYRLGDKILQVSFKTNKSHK

Each substance was assayed against γ-tubulin, endogenous (human (endogenous in U251)) (UniProt P23258) (assay: co-IP; immunoprecipitation with γ-tubulin antibody on IP matrix from U251 cell lysates, 6 h at 4 °C; cells in control condition or treated with EGF/bFGF; rabbit IgG as control; Western blot).

Substance | binding
Abl-1 kinase, endogenous (from UniProt P00519 1-1130) (enzyme) | binds
EGFR, endogenous (from UniProt P00533 25-1210) (receptor) | no binding
HuR (mRNA binding protein HuR), endogenous (from UniProt Q15717 1-326) | binds

These are yes or no findings as the source states them, for the method shown. Binding seen in cells or lysates may run through a third protein. Binding can be weak; no strength is given.
